This experiment can be described thus: qHTS Assay to Find Inhibitors of Chronic Active B-Cell Receptor Signaling. Conditions: ABC-DLBCL IkBa-CBG/CBR reporter, luminescence ratio (green luciferase fused to IkBa over red control in TMD8 lymphoma cells), 4 h. In a few lines:
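Concentration-response series (up to 46 uM) were applied to TMD8 dual-reporter cells for 4 h at 37C with doxycycline. Green/red ratio, after filter-overlap correction, defined %Activity; red signal alone was normalised to basal cells and zero luminescence.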
On the technique in general: qHTS replaces the single test concentration by a dilution series.

Setting [1] is: measured here: CBR red luminescence, cell number.
Where [2] appears, read: measured here: IkBa-CBG green luminescence.

As a reminder, the AC50 is the midpoint of the concentration-response curve, whichever way the signal moves.

Several values for one entry are separate records, joined by “and”; a condition that tells them apart may be missing. Equal entries are not always repeated. Some of the results follow. Further columns of the screen follow, without active or inactive calls. Most of these compounds were active or inconclusive in the main read-out, so they are no random draw. Words in brackets tell the shape of the fitted curve; partial curves, single points and poor fits give uncertain potencies.

Regarding `C=CCNC(=O)NC(=O)CN1C(=O)NC(c2ccccc2)(c2ccccc2)C1=O`, the AC50 under setting [1] is 4.47 µM [falling, partial curve, poor fit].
With `COc1ccc(Br)cc1CNC(=O)C1CCN(C(=O)N(C)C)CC1`, the AC50 under setting [1] is 35.5 µM [rising, single point].
For the molecule `CCC(CC)NC(=O)c1ccc(NS(=O)(=O)c2ccc3[nH]c(=O)[nH]c3c2)cc1`, the AC50 under setting [1] is 14.1 µM [falling, single point].
Consider `COc1cc2c3nnc(-c4ccc(F)cc4)c-3cn(Cc3ccccc3F)c2cc1OC`, for which the concentration at half-maximal activity (AC50) under setting [1] is 14.1 µM [rising, partial curve].
For `Cc1[nH]nc(SCC(=O)N2CCCCCC2)c1[N+](=O)[O-]`, the AC50 under setting [1] was 11.2 µM [falling, partial curve].
Still for that read-out and setting: next, `C=CCN(c1ccc(C(=O)Nc2ccc3c(c2)OCO3)cc1)S(C)(=O)=O`: 2.82 µM [falling, full curve, poor fit]; `Cc1[nH]n(-c2ccccc2)c(=O)c1N=Nc1ccccc1O`: 0.126 µM [falling, full curve, poor fit]; `O=[N+]([O-])c1ccccc1/C=N/OCc1ccccc1`: 8.91 µM [rising, partial curve, poor fit].
Consider `COC(=O)c1ccccc1NC(=O)CNc1cc(Cl)ccc1N1CCOCC1`, for which the AC50 under setting [1] was 8.91 µM [falling, partial curve, poor fit].
Take `O=C(NC1CC1)c1c[nH]c2ccc(S(=O)(=O)Nc3cccc(C(F)(F)F)c3)cc2c1=O`: the AC50 under setting [1] is 0.794 µM [falling, full curve, poor fit].
For the molecule `CCCCn1c(=O)[nH]c(=O)c2c1nc(-c1cc3c(cc1Br)OCO3)n2C`, the AC50 under setting [1] was 22.4 µM [rising, partial curve, poor fit].
As for `CC1=CC(C)=Nc2ccc(C)cc2N1`, the AC50 under setting [1] was 6.51 µM [rising, single point] and 3.66 µM [rising, full curve].
Still for that read-out and setting: next, `Clc1cccc(-c2nnc(-c3ccccc3)o2)c1`: 20.6 µM [falling, single point]; `CC1CCCCC1NC(=O)/C(C#N)=C/c1ccccc1F` (stereo not given): 14.6 µM [falling, partial curve]; `CN1C(=O)Cc2cc(S(=O)(=O)Nc3ccc(Cl)cc3)ccc21`: 8.91 µM [falling, partial curve, poor fit].
Still for that read-out and setting: next, `O=C1N(Cc2cccc(Cl)c2)C[C@@H]2C[C@@H](c3ccccn3)N3CCC[C@@]123`: 12.6 µM [falling, partial curve, poor fit].
The same measure, in the same setting: with `CC1CCCCN1C(=O)CSc1nnc(-c2ccccc2F)o1` (stereo not given) the figure was 6.31 µM [rising, single point].
As to `COc1c(C)cc(S(=O)(=O)N2CCCC2)c(C)c1C`, the AC50 under setting [1] is 16.4 µM [rising, partial curve, poor fit].
Regarding `Cc1cccc(OCc2ccc(C(=O)Nc3ccc(F)cc3)cc2)c1`, under setting [1], the AC50 is 29.1 µM [rising, single point].
On the same count and under the same terms, next, `Cc1ccc(C)c(-n2nnnc2Sc2nnnn2-c2ccccc2)c1`: 7.08 µM [falling, partial curve].
Turning to `CC(=O)C(=Nc1ccccc1Cl)NNc1ccc(Cl)cc1`, the concentration at half-maximal activity (AC50) under setting [2] is 32.6 µM [rising, partial curve, poor fit].
On to `CCOc1ccc(N2C(=O)S/C(=C\c3ccc(O)c(OCC)c3)C2=O)cc1`, for which the AC50 under setting [1] is 35.5 µM [rising, single point].
As to `C=CCN1CCN(C(CCC)c2nnnn2Cc2ccco2)CC1` (stereo not given), the AC50 under setting [1] is 3.98 µM [falling, partial curve, poor fit].
For `COC(=O)[C@@H](NC(=O)c1ccccc1OC1CCN(S(C)(=O)=O)CC1)C(C)C`, the AC50 under setting [1] was 35.5 µM [rising, single point].
Regarding `CN(C)c1ccc(/C=N\NC(=S)SCN2C(=O)C3CCC(C)(C2=O)C3(C)C)cc1` (stereo not given), the AC50 under setting [1] was 3.66 µM [rising, full curve, poor fit].
Take `CCCCCCOc1ccc(C(=O)NCCCn2ccnc2)cc1`: the AC50 under setting [1] was 35.5 µM [rising, partial curve, poor fit].
In the case of `Cc1cc(C(=O)Nc2ccccc2C)on1`, the concentration at half-maximal activity (AC50) under setting [1] was 11.2 µM [falling, single point].
Regarding `CNC(=O)c1cc(C(=O)c2ccc(C(F)(F)F)cc2)c[nH]1`, under setting [1], the AC50 was 7.94 µM [rising, partial curve, poor fit].
The same measure, in the same setting: next, `CN(Cc1ccccc1)S(=O)(=O)c1ccc(NC(=S)NC(=O)C2CCCC2)cc1`: 10 µM [rising, partial curve].
Turning to `COc1cccc(C(=O)NNC2=CC(=O)CC(C)(C)C2)c1`, the concentration at half-maximal activity (AC50) under setting [1] was 8.91 µM [falling, partial curve].
Turning to `Cc1n[nH]c(=O)n1-c1ccc(OCc2ccccc2)cc1`, under setting [1], the AC50 is 1.26 µM [falling, partial curve].
On to `Fc1ccc(Nc2nc(N3CCOCC3)c3ccccc3n2)cc1`, for which, under setting [1], the AC50 was 11.2 µM [falling, partial curve].
Take `O=C(/C=C/c1ccc2c(c1)OCO2)Nc1c(C(=O)O)[nH]c2ccccc12`: the AC50 under setting [1] is 10.3 µM [falling, partial curve, poor fit].
Regarding `CC(c1ccccc1)n1c(-c2cccs2)nc2c(c(=O)c3ccccc3n2C)c1=O` (stereo not given), the AC50 under setting [1] was 0.1 µM [rising, full curve, poor fit].
Still for that read-out and setting: next, `c1ccc(-n2ncc3c2ncn2nc(-c4ccco4)nc32)cc1`: 10 µM [falling, single point]; `Cc1[nH]c2ccccc2c1C(=O)COc1ccccc1F`: 1.12 µM [falling, partial curve, poor fit].
With `Cc1cc(-c2ccccc2)n2nc(N)nc2n1`, the half-maximal activity concentration (AC50) is 12.6 µM [falling, single point] under setting [1] and 17.8 µM [rising, partial curve, poor fit] under setting [2].
Turning to `COc1cc(/C=N/NC(=O)c2c(-c3ccccc3)noc2C)cc(OC)c1OC`, the AC50 runs as follows: under setting [1], 29.1 µM [rising, single point]; under setting [2], 23.1 µM [falling, single point].
Take `O=C(O)c1ccc(/C=N/Nc2nnnn2-c2ccccc2)cc1`: the AC50 under setting [1] is 20.6 µM [falling, partial curve].
On the same count and under the same terms, with `Cc1cc(C(=O)N/N=C/c2ccc(-c3cccc(Cl)c3Cl)o2)n[nH]1` the figure was 0.58 µM [rising, full curve]; with `Cc1nc(N[C@@H](Cc2c[nH]c3ccccc23)C(=O)O)c2oc3ccccc3c2n1`, 2.82 µM [falling, full curve]; with `CCOC(=O)N1CCc2[nH]c3ccc(C)cc3c2C1`, 3.98 µM [falling, full curve, poor fit].
With `COc1ccc(Br)cc1C1N2CC3(C)CN1CC(C)(C2)C3=O` (stereo not given), the AC50 under setting [1] was 20.6 µM [rising, single point].
On to `COc1ccc(C(=O)N/N=C(\C)CC(=O)Nc2ccc3c(c2)OCCO3)c(OC)c1`, for which the AC50 under setting [1] is 3.55 µM [falling, partial curve, poor fit].
Regarding `CCCn1nc(C(=O)N2CC(=O)Nc3ccccc32)c2ccccc2c1=O`, the AC50 under setting [1] is 12.6 µM [rising, single point].
For `Cc1ccc(-c2nc(CN(C)C3CCOCC3)c(C)o2)s1`, the AC50 under setting [1] was 10 µM [rising, partial curve, poor fit].
For the molecule `COC(=O)CSc1ncnc2c1sc1nc(N3CCOCC3)c3c(c12)CCCC3`, the AC50 under setting [1] was 3.16 µM [rising, full curve, poor fit].
Regarding `COCCCNC(=S)N/N=C/c1ccccc1O`, the AC50 under setting [1] is 0.355 µM [falling, full curve, poor fit].
As for `CCOC(=O)CSC1=N/C(=C/c2ccc(-n3cncn3)cc2)C(=O)N1C(C)=O`, under setting [1], the AC50 is 3.55 µM [rising, partial curve, poor fit].
On to `CCCCCCNC(=O)Cc1nc2nc(C)cc(C)n2n1`, for which the AC50 under setting [1] is 22.4 µM [rising, single point].
For the molecule `c1ccc(-c2csc(N3CCN(c4ccccn4)CC3)n2)cc1`, the AC50 under setting [1] is 14.1 µM [falling, single point].
In the case of `CCOC(=O)c1c(C)cc(C)[nH]c1=O`, under setting [1], the AC50 was 11.2 µM [rising, partial curve, poor fit].
With `O=C(Nc1ccc(OC(F)(F)F)cc1)C1CCCN(S(=O)(=O)c2cnc[nH]2)C1` (stereo not given), the half-maximal activity concentration (AC50) under setting [1] was 11.2 µM [falling, single point].
Regarding `CCn1cc(C(=O)O)c(=O)c2cnc(N3CCN(C(=S)Nc4ccc(F)cc4)CC3)nc21`, the AC50 under setting [1] is 5.62 µM [rising, full curve, poor fit].
In the case of `C=CCn1c(SCC(=O)NCCc2ccccc2)nnc1C1CC1`, under setting [1], the AC50 was 0.164 µM [rising, full curve].
In the case of `C=C(C)CNC(=S)N=Nc1c(O)[nH]c2ccc([N+](=O)[O-])cc12`, the concentration at half-maximal activity (AC50) under setting [2] is 22.4 µM [falling, partial curve, poor fit].
For the molecule `O=C(N/N=C/c1ccc(Br)s1)c1ccncc1`, the concentration at half-maximal activity (AC50) by setting is: under setting [1], 31.6 µM [falling, single point]; under setting [2], 25.1 µM [falling, single point].
Turning to `Cc1cccc(NC(=O)CNC(=O)COc2cccnc2[N+](=O)[O-])c1C`, the half-maximal activity concentration (AC50) under setting [1] was 29.1 µM [falling, single point].
As to `C/C(CCC(=O)OC[C@H]1O[C@H](C#Cc2ccccc2)C=C[C@@H]1Oc1ccc(C)cc1)=N\OC[C@@H](O)[C@H]1O[C@@H]2OC(C)(C)O[C@@H]2[C@H]1O`, the AC50 under setting [1] is 29.1 µM [falling, single point].
For `Cc1cccc(NC(=O)c2cc(S(=O)(=O)N3CCc4ccccc43)ccc2F)c1C`, the AC50 under setting [1] is 11.2 µM [falling, partial curve, poor fit].
On the same count and under the same terms, with `COC(=O)CN1C(=O)[C@H]2[C@@H](c3ccc(C)o3)N3C(=O)CN(CCO)C(=O)[C@@]3(C)[C@H]2C1=O` the figure was 5.01 µM [falling, single point]; with `CCc1ccc(NC(=O)Nc2ccc3c(c2)N(C)C(=O)CS3)cc1`, 2.91 µM [rising, single point].

The values are drawn from PubChem BioAssay AID493014 (National Center for Advancing Translational Sciences (NCATS), 2011).
